{
  "source": "paper PMC12584617",
  "test_in_all_cases": "EMSA",
  "key": {"[1]": {"tested_on": "T1, NsrM (All0345) (Anabaena sp. strain PCC 7120)", "T1 sequence (looked up)": "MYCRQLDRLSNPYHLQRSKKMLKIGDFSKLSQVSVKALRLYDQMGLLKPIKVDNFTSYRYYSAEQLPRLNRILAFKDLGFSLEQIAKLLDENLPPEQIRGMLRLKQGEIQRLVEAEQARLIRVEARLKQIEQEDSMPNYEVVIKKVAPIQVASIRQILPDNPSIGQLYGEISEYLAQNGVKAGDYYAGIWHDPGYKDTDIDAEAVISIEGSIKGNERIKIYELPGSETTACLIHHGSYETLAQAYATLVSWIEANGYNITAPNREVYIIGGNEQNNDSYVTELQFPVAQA", "conditions": "10 mM Bis-Tris-HCl pH 7.5, 40 mM KCl, 0.1 mg/mL BSA, 5% glycerol, 50 ng DNA, 50-100 ng ifpkn22 competitor, 30 min room temperature, recombinant protein, residues 1-290, protein details: His-tag (pET28 NdeI/SalI), probe letters rebuilt from the primers and the genome"}, "[2]": {"target": "T2, NtcA (UniProt P0A4U6)", "T2 sequence (looked up, limits assumed)": "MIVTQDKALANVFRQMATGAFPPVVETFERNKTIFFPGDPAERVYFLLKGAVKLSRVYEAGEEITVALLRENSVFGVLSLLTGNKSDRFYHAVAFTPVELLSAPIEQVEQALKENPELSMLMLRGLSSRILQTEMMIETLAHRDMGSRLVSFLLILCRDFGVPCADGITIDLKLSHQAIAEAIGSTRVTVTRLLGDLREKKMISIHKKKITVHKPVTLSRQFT", "conditions": "10 mM Bis-Tris-HCl pH 7.5, 40 mM KCl, 0.1 mg/mL BSA, 5% glycerol, 50 ng DNA, 50-100 ng ifpkn22 competitor, 30 min room temperature; recombinant protein; protein details: His-tag; probe letters rebuilt from the primers and the genome"}, "[3]": {"tested_on": "T3, NsrX (Alr1976) (Anabaena sp. strain PCC 7120)", "T3 sequence (looked up)": "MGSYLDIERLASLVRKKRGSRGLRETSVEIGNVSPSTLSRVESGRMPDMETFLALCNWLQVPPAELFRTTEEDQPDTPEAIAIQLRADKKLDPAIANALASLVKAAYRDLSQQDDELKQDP", "conditions": "10 mM Bis-Tris-HCl pH 7.5, 40 mM KCl, 0.1 mg/mL BSA, 5% glycerol, 50 ng DNA, 50-100 ng ifpkn22 competitor, 30 min room temperature, recombinant protein, residues 1-121, protein details: His-tag (pET28 NdeI/SalI), probe letters rebuilt from the primers and the genome"}},
  "note": "For part of these data: A negative result means that nothing was seen under these conditions. For part of these data: At least one verdict was read from the data and is not stated in words by the source. Protein sequences can lack the tags named with them. Construct, isoform or probe ends are uncertain for at least one entry. For part of these data: Weaker means in comparison with the reference protein, sequence or condition of that experiment.",
  "data": [
    {"sequence": "AAATGACACGGTAGTCGCTGTTTGTGAGAAAGTCGTTTGTCTTCAACAGTCCTACTGCTGAGGTTATCACTATGCTGCCCAGTAATATTTCTAGGCTCAGAGCAATCATAAGTCTTTTCCTCACACCTTATGTAGCTGTTGATGGTTGACTGTTGTCTGTTGACAGACTTGAAAGCCTTTTATGGTCAGAGTTTTGTCTTAGCTTGATGTCCTAATCTATCTGACTATGGCTATATATCAAAAATACTCAAAAAAGACTCTTGACTCTACCCTTAGGGCAGGGTGTGTACTGTAGACAGTTGGATAGATTAAGTAATCCATATCACCTACAGCGCAGT (double strand) [PnsrM]", "values": [
      {"measurement": "binding result", "setting": "[1]; 1 mM DTT, metal-independent", "result": "binds"},
      {"measurement": "binding result", "setting": "[1]; no DTT (binding required reducing conditions)", "result": "binds more weakly"},
      {"measurement": "binding result", "setting": "[2]", "result": "binds"}
    ]},
    {"sequence": "ACGCGGATATGGTACAGCAGTTAACTCTAGTGCTAGTTTATTCAGACCATGACGTAGTAGTTCTGGATATGGATACTTGCCATCTCGGCGGACAAACTCTGCTAAACCAATAACAAGACTGTTAAATTCGCTAATTTCCATAAGCGATCATCCTTCTTTGAGAGGATTTACTCAGCACCACGCTTTTTTCATTCATGATACATTTGTTGCACATACCATACAGGATTATTTATGGTGTGTCAACTAAGAAACGATTGATTTTTACGTGACGCAAGGATAGGAGAATGGGAAGTTATCTAGATATAGAACGCTTGGCGAGCCTAGT (double strand) [PnsrX]", "values": [
      {"measurement": "binding result", "setting": "[3]; with or without 100 uM Mn2+ and 1 mM DTT (high affinity in all)", "result": "binds"},
      {"measurement": "binding result", "setting": "[2]", "result": "binds"}
    ]},
    {"sequence": "GGCATTTCTCTCATGATATAGAGTGTTTCTGTAGCTAAGGTATTCTTTGTAACTCACGAAGTTGAGGACGAAATTATTTGGAGTTTGACAAATCTGTCTGTAATCACACAGGTTATAAATCTTGCTGGTGAGAAAATATATATAGAGATAGGTTGATTAGTTTTAAAAAAGAGTATGCCAATATACTAAATTCGTATTTTTATAAATGATTTAAAAAAATAGAAAGTTATATTTTTTTGATGAATATTCGATAAATACTAATTCTTTAAGTCTATTAATTTGTTATTTATGTAATATCACTTACGTAATTAAAGATAATACTAGGGCTTCCTACATCCTAAATGTGATTTTCTTCAATTTTCATCCTCTAGGG (double strand) [PhepB distal]", "values": [
      {"measurement": "binding result", "setting": "[1]; 1 mM DTT", "result": "binds"},
      {"measurement": "binding result", "setting": "[3]", "result": "no binding"}
    ]},
    {"sequence": "GGCGTGTGGCTCTTGTTCTAGTAGTACAGCCACCTTAAAGATAGCGATTGAATCCAGATTACGCGATCGCATCAACCCCAGCCTAGTAGTAGAAGCAGTTTAGTTAACAGTTAACAGTAAACCGTTAACTAACACCCAAAAGAACTTTCACAACTACATAACGAACCCATCATGAACACTAATTCTACTGGTTTTTCTGTGGAGCGATCGCCCCCTCTTCGGCGACGTTCTACAAACCCCTCACAGCCATAGCTCAACAGGCGTGAGATCCAAACACAAAGACCGACCAACTAACCAACC (double strand) [PnifHDK]", "values": [
      {"measurement": "binding result", "setting": "[1]", "result": "no binding"},
      {"measurement": "binding result", "setting": "[3]; no metal", "result": "binds more weakly"}
    ]},
    {"sequence": "GGGTGAATAATGCCCTGCACAACTATAAAATTGTGAGCAATACCCACCCTATACTTATTTCAGCAAGCAAGTAAAAATCCTATATAGGACTCATATTTGATTTCTGAAAAACCAAATTGGCTAGAAGCTTGCTATACAGAGCTTTGTTTCTCAGTATACGTAGCAAAATTCAAGTACGATTCCTATAGATGAATTACTACACTTTAGTTAAAAATTAGGTTGTCACGGTTCAAAAAATTGTCTTAGAAAATATACAACGCATTTAAAAATGCCAAAATCACCACATAAATTATTTAAAGCTAATAGCTTCTGGAAAGAG (double strand) [PhepA proximal]", "values": [
      {"measurement": "binding result", "setting": "[1]", "result": "no binding"},
      {"measurement": "binding result", "setting": "[3]; 100 uM Mn2+", "result": "binds"},
      {"measurement": "binding result", "setting": "[3]; no metal", "result": "binds more weakly"}
    ]},
    {"sequence": "GTAATCGGAAGTGTTTTCATGGCGATCGCTCTGTTATTAAATCAAGATTTAAAATAAAAATTAGGGAAAAGGCTTTTCCTGTAGGTAAATGTATTTCTGAGAATATATTTACCTAAGTTCAGCAATTTACAGTTAAGTCAACACAGTTAGTCTTTATTTTTTATTTTCACGCCAATCTTTCCACTCAGGAGAGTTCTACACCGTCAGTGCTACTCTCCTGAGTGGAATAGTTTCATGATGTCAAACAGAAAAATTGTTCAACCGATTACTAGAAAACATTCTTTCAAAAATCAGGTTGCTTTTCTGTATCTTTCATTAACTTGGCTAATCTAACAGTACCTTAAGTACTACACGTATAGTTATTGGCTCAAACC (double strand) [PpatA]", "values": [
      {"measurement": "binding result", "setting": "[1]; 1 mM DTT", "result": "binds"},
      {"measurement": "binding result", "setting": "[3]", "result": "no binding"}
    ]},
    {"sequence": "TCTGGTTGATTACGTTTGGGTTTAGATTTTAGTGAGATCATATTTTGTGAATTAGAGGGAGAAAAAGCGAAATCGTGACTAGCTATTCCCAGGTAATCAGAAACTAGGGAACCAAGTACTAGACTCGAAATTAAAACTGGAACAGCAGCACGCATCATAAAAGTCTCTTTGTAAATTCTCTTATCTATTGCTACTGAGTTTTATATAACGAGTCCGGAAGAATCTAAAAAAAAGTAGTGCTTTTTACTGAAAATCCATGAAAGTGTGCATGGTGTCAATATATTCCACCAACAACCAATGACCGGAAGGATTGAGATGACCCCGAACCGTCAGATGTTGCTT (double strand) [PpatX]", "values": [
      {"measurement": "binding result", "setting": "[1]; 1 mM DTT", "result": "binds"},
      {"measurement": "binding result", "setting": "[3]", "result": "no binding"}
    ]},
    {"sequence": "TTGGCAAATCTTGCGGCAAGGAGCAGTAAGTTTAGAGTTTTAGGGCATAAAAAGGAGGAAAGTAGGGGAATATGGGGCAAAACGAAAAACTGAGAAAAGAACTATTTCCCTTTTTCTCCCTGCTCTCTACCTCTCTCCCCAGCCCGCAATCCCCACTTCCATTTTTTAGACAGTTATAATGTTGGTCTCCTGATTTTTAGGCAGTGAATTAGTGAAGAACTTGTTGGATCAAGCAGAACTGATGAACTAAAAAATAAGGAAACTGATTTTTATACTTTGTGGTCAATTTAACAAGTTAATAACTGTCTAAATATGAATTGGAGCAACTGGATATATCTAGGAGCCGGATTATTATTGGGGCTTGGTGTTCGTGGTTTATTTGCGCGGTCTACAAATGCCACTGCT (double strand) [PhepN]", "values": [
      {"measurement": "binding result", "setting": "[1]; 1 mM DTT", "result": "binds"},
      {"measurement": "binding result", "setting": "[3]", "result": "no binding"}
    ]}
  ]
}
